Source: PMC7686362, “Recent evolution of a TET-controlled and DPPA3/STELLA-driven pathway of passive DNA demethylation in mammals” (Nature Communications, 2020)
No constants are given. Whether binding was seen depends on the method and setting. Binding seen in cells or lysates may run through a third protein. A yes stands for co-enrichment or nearness to the bait. Other partners may have been found. Tags and fused reporters may be left off the sequences shown.

Protein sequences, listed by entry. Tags and fused reporters are not part of them.
UniProt P13864: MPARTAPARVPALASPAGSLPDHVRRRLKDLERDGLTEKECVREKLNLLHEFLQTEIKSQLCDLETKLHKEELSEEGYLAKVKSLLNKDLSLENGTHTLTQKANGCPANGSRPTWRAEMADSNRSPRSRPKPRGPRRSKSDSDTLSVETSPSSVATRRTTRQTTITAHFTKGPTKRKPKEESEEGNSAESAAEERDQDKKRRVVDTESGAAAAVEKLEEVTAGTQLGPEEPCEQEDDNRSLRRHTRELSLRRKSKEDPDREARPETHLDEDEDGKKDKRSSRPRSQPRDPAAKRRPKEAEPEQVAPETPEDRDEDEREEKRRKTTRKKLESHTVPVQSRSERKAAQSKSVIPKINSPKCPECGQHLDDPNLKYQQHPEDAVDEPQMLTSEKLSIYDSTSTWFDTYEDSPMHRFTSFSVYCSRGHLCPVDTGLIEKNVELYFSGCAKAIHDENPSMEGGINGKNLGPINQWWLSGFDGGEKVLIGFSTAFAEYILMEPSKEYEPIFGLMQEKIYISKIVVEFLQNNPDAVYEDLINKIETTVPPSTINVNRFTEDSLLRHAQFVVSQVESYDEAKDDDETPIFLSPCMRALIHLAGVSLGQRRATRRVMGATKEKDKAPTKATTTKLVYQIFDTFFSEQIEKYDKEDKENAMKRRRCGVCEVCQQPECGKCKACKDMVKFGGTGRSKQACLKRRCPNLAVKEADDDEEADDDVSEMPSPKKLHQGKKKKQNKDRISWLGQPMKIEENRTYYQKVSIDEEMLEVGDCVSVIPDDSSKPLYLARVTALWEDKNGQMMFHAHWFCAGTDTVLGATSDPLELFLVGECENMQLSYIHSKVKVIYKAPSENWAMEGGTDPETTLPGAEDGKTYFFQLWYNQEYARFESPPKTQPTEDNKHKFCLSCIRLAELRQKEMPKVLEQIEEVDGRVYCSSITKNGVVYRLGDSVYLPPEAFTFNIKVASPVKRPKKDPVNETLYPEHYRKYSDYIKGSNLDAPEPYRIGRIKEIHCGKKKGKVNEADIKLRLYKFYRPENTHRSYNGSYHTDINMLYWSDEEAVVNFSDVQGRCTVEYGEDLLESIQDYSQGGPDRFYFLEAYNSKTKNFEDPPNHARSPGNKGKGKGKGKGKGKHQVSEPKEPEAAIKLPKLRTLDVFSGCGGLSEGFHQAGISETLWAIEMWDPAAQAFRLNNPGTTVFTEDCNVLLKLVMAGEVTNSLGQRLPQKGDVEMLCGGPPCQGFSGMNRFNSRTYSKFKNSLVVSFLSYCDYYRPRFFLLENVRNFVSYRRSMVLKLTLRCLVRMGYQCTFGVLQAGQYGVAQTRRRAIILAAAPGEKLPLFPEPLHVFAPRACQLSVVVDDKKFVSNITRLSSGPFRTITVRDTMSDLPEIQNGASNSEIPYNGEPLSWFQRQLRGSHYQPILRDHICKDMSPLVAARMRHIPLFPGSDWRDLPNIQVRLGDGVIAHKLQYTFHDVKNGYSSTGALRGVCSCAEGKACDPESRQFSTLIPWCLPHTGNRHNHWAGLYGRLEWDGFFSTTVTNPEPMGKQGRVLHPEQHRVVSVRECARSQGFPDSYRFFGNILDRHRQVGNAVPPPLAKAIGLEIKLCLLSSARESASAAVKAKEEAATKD

Target: T1, 3xFLAG-DPPA3 (doxycycline-inducible, pSBtet-3xFLAG-Dppa3-IRES-DsRed-Express-PuroR) (mouse) (UniProt Q8QZY3)
T1 sequence: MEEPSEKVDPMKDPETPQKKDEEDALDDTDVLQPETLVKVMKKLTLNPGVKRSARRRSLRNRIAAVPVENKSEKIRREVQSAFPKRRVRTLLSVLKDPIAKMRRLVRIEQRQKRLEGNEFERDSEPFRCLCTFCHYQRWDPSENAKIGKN
Test: affinity purification with mass spectrometry; anti-FLAG versus control IgG immunoprecipitation from whole cell lysates of doxycycline-induced Dppa3-FLAG mouse ESCs crosslinked with 1% PFA (ChIP-MS); on-bead digestion, LC-MS/MS

DNMT1 (endogenous, mouse ESCs) (from UniProt P13864 1-1620)
binding: binds
